Where a name gives a salt, the structure may show the parent alone. The list shows a part of the results. Hit calls seldom repeat between salt and free forms of one compound.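 Kinases, fused to nanoluciferase, were expressed in K562 cells; luminescence was measured every 4 h from 2 to 18 h as percent of control (DMSO = 100%, positive control = 0%). A time point is decreased if signal falls significantly (2 sigma). Hits were called by the authors by a rule that is not shown; the count of time points alone does not decide it.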
What was measured:
Test in all cases: number of time points (of 5) at which kinase-Nluc abundance scored as decreased, DMSO-normalised (count); higher = more persistent destabilization
Details in all cases: K562; 2-18 h
[1] = molecular target: CSNK1A1 (UniProt P48729)
[2] = molecular target: CSNK1D (UniProt P48730)
[3] = molecular target: DDR1 (UniProt Q08345)
[4] = molecular target: DYRK1B (UniProt Q9Y463)
[5] = molecular target: DYRK2 (UniProt Q92630)
[6] = molecular target: EGFR (UniProt P00533)
[7] = molecular target: EGFR_G719S (UniProt P00533)
[8] = molecular target: EGFR_G719S_T790M (UniProt P00533)
[9] = molecular target: EGFR_L718V (UniProt P00533)
[10] = molecular target: EGFR_L858R (UniProt P00533)

Chains of the proteins cited; added tags and fusions are not shown. Lines headed by an entry give the natural chain unless they say otherwise; changes in a name come on top.
UniProt P48729: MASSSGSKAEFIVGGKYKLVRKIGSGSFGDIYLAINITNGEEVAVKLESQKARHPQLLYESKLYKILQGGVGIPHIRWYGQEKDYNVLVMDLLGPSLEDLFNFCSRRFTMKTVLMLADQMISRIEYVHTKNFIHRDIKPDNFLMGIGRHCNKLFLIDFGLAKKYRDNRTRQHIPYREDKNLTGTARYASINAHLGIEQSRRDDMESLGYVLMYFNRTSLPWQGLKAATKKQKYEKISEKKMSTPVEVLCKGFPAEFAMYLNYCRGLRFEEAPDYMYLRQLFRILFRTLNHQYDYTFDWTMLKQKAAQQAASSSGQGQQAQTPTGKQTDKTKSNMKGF
UniProt P48730: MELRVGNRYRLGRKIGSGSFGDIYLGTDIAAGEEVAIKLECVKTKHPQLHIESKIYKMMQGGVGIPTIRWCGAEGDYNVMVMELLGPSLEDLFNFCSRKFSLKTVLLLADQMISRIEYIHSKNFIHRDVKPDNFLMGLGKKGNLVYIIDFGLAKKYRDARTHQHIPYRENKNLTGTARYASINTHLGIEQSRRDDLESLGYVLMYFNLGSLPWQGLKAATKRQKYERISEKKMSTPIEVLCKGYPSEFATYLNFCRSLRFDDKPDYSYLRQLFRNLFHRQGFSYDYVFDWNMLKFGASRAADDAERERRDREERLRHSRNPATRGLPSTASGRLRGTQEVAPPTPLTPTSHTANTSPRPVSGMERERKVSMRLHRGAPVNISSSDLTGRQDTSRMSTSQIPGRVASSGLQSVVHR
UniProt Q08345: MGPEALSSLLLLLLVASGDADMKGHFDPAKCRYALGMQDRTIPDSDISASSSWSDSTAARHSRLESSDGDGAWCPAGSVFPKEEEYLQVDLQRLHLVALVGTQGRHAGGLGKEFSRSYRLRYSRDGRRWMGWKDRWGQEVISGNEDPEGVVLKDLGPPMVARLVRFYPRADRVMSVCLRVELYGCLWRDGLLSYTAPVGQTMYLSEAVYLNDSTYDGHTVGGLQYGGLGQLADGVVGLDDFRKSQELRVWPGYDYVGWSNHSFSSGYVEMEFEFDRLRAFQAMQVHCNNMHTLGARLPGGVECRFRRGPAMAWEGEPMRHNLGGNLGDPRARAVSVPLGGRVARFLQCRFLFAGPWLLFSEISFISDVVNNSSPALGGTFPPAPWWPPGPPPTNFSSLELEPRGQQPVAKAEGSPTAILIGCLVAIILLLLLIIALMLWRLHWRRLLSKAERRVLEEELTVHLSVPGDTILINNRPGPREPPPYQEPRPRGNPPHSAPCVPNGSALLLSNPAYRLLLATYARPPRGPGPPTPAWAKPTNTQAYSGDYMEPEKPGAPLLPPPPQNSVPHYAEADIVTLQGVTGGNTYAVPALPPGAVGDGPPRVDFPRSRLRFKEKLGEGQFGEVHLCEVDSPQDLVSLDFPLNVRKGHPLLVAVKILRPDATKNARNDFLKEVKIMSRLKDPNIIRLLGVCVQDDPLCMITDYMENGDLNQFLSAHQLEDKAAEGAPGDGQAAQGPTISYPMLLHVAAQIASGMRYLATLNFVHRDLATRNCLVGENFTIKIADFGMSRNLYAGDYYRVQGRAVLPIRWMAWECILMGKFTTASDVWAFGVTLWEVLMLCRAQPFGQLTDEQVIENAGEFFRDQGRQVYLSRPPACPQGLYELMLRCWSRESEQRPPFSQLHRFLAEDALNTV
UniProt Q9Y463, whole entry, looked up: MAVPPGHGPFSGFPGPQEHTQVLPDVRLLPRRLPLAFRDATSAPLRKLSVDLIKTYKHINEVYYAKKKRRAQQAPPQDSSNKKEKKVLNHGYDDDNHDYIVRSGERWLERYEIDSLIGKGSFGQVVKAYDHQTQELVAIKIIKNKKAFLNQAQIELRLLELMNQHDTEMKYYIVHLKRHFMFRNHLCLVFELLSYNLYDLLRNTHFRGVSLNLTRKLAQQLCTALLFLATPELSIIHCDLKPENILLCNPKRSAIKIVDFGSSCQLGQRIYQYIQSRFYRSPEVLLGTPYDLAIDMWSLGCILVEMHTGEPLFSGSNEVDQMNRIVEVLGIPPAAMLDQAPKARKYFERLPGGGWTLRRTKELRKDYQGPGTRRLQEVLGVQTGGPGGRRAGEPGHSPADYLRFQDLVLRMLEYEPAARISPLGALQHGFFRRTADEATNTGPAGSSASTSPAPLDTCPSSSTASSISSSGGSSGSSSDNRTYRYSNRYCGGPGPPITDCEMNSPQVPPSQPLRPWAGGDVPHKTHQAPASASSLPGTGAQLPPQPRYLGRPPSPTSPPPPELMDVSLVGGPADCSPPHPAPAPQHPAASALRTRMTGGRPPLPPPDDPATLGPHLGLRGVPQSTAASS
UniProt Q92630: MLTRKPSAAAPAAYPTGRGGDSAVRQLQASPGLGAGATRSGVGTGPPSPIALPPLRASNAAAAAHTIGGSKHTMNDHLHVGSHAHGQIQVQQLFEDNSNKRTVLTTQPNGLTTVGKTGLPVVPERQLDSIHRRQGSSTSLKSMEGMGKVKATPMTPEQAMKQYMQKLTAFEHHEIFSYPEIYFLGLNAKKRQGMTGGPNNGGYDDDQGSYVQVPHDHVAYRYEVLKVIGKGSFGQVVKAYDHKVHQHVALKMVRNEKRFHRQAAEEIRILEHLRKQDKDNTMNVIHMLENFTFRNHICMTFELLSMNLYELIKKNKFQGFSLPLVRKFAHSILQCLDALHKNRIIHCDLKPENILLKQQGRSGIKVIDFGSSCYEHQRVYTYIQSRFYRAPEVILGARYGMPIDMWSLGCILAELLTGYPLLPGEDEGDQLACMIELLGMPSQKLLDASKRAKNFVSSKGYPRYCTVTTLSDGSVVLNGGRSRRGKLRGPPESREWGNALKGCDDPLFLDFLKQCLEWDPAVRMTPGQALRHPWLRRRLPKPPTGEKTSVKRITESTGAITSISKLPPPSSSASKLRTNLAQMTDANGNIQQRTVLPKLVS

Measured: number of time points

Cn1c(CNc2cccc(C(=O)NCc3ccccc3C(F)(F)F)c2)nnc1-c1ccncc1 (10 µM)
0: all assays above

CC(C)n1ncnc1-c1cn2c(n1)-c1ccc(O[C@@H](C)C(N)=O)cc1OCC2 (10 µM)
0: all assays above

COC(=O)Nc1ccc(-c2nc(N3CCOCC3)c3cnn(C4CCN(C(=O)OC)CC4)c3n2)cc1 (10 µM)
0: all assays above

Nc1ncc(-c2ccnc(Nc3ccncc3)n2)c(CC2CC2)n1 (10 µM)
1: [3]
0: all other assays above

C=CC(=O)Nc1cc(Nc2nccc(-c3cn(C)c4ccccc34)n2)c(OC)cc1N(C)CCNC [AZ7550 Mesylate] (2.5 µM)
1: [3]
0: all other assays above

COC(=O)/C=C/c1ccccc1 [Methyl cinnamate] (10 µM)
0: all assays above

Cn1c2cc([S+](C)[O-])sc2c2cnn(Cc3cccc(N)c3)c(=O)c21 (stereo not given) (2.5 µM)
0: all assays above

COc1ccc2c3n(c(=NC(=O)c4cccnc4)nc2c1OC)CCN3 (2 µM)
0: all assays above

O=C(c1cccc(Cl)c1F)N1CCN(Cc2cccc(Nc3nccs3)n2)CC1 (2.5 µM)
0: all assays above

O=C(Nc1ccc(Cl)cc1)C1CCCN(C(=O)c2cc(C(F)(F)F)cc(C(F)(F)F)c2)C1 (stereo not given) (10 µM)
2: [1] | [6]
1: [7]
5: [3]
0: all other assays above

Retrieved by compound from the list above (2):
Nc1ncc(-c2ccnc(Nc3ccncc3)n2)c(CC2CC2)n1 (10 µM)
1: [3]
0: all other assays above

COC(=O)/C=C/c1ccccc1 [Methyl cinnamate] (10 µM)
0: all assays above

Carrying on.

C=CC(=O)Nc1cccc(Oc2nc(Nc3ccc(N4CCN(C)CC4)c(F)c3)nc3[nH]ccc23)c1 [Avitinib (maleate)] (2.5 µM)
0: all assays above

COc1ccc(S(=O)(=O)Nc2cc(-c3c(O)ccc4ccccc34)c(O)c3ccccc23)cc1 (10 µM)
0: all assays above

CC(O)(C#Cc1ccc2c(c1)N(c1nc(N)ncc1Cl)CC2)c1nccs1 (stereo not given) (2.5 µM)
0: all assays above

O=C1Nc2ccc(I)cc2/C1=C/c1cc(Br)c(O)c(Br)c1 (10 µM)
3: [1] | [7]
2: [2] | [6]
0: all other assays above

NCC1CCC(CNc2nc(NCc3ccccc3OC(F)(F)F)ncc2[N+](=O)[O-])CC1 (stereo not given) [PKC-theta inhibitor] (10 µM)
0: [1] | [2] | [4]
1: [5]
3: [9]
2: [6]
4: all other assays above

Cc1cc([C@@H](C)Nc2ccccc2C(=O)O)c2nc(N3CCOCC3)cc(=O)n2c1 (10 µM)
0: all assays above

N#Cc1cnc2c(Cl)cc(NCc3cn(CCN4CCCCCC4)nn3)cc2c1Nc1ccc(F)c(Cl)c1 [Cot inhibitor-1] (10 µM)
1: [2]
0: all other assays above

COc1cc2ncnc(Nc3ccc(O)c(Br)c3)c2cc1OC (10 µM)
0: all assays above

Cc1cnc(NC(=O)c2cc(Oc3cnc(C(=O)N(C)C)nc3)c3cc(C)oc3c2)cn1 (10 µM)
0: all assays above

Source: the supplement of paper PMC12823440, “Inhibitors supercharge kinase turnover through native proteolytic circuits” (Nature, 2025)
